# Assay results published in PubChem BioAssay AID1671190 (National Center for Advancing Translational Sciences (NCATS), 2021).
# Amino acid sequences for entries named in this document (tags omitted). A change or cut given only in a name is not applied to a line headed by its entry.
# UniProt P18054: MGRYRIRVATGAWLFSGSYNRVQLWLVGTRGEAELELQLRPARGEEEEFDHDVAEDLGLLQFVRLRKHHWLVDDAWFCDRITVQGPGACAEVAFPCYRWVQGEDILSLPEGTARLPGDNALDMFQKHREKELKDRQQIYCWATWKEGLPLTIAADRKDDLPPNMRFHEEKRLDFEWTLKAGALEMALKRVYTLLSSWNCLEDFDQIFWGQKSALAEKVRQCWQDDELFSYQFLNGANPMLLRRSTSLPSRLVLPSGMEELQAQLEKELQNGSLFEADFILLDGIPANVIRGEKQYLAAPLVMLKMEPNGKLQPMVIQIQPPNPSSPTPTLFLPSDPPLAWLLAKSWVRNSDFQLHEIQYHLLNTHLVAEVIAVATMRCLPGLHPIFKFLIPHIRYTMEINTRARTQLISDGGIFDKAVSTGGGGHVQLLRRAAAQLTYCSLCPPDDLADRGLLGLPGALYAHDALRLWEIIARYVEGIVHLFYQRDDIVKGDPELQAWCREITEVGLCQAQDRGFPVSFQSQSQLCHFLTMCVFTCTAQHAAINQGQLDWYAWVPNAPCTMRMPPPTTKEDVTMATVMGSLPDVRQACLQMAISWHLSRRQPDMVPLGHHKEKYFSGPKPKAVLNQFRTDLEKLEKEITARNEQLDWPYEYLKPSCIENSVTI
# About 6,100 (1.1%) of roughly 580,000 compounds were called active. Inconclusive results, whose numbers are uncertain, are shown with a selection of clear calls. Calls follow the shape of the dose curve; as a rule, active = well fitted inhibition curve with a large enough effect; inconclusive = small, poorly fitted or top-dose-only effect, or another doubt; inactive = no such curve, though single readings can be large or run the other way. A potency beside an inconclusive call is a rough fit, not a confirmed value.
# Target: Polyunsaturated fatty acid lipoxygenase ALOX12 (Homo sapiens) (UniProt P18054)
# Experiment: Primary qHTS assay for inhibitors of human arachidonate 12S-lipoxygenase (ALOX12): Round 2
# Settings: purified 12hLO, xylenol orange hydroperoxide absorbance; activity change, negative = inhibition: at 108 µM (top of the series) unless noted
# Summary of the method: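 Hydroperoxide product was detected by ferrous iron/xylenol orange as the 573 to 405 nm absorbance ratio. Arachidonic acid at 40 uM (final) was turned over for 30 min at room temperature by 150 nM human 12hLO, pH 7.0 Hepes buffer, after 15 min compound preincubation.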
# % is scaled to controls: 0 for no effect and ±100 for the full control effect; potency is read from the fitted curve at half-maximal effect.
Compound,Potency,"activity change, negative = inhibition"
CCN1CC(=O)C=C(C)C1,"inconclusive: 35.5 µM [inhibitor, partial curve, poor fit]",–
O=C(NCC12CC3CC(CC(C3)C1)C2)C1CCCCC1,inactive,–
CN1N=C(N)c2cn(C3OC(COP(=O)(O)O)C(O)C3O)c3ncnc1c23 (stereo not given),"inconclusive: 79.4 µM [inhibitor, single point]",–
COc1ccc(N2CCN(C(=O)c3cccc(-n4c(C)nc5cccnc54)c3)CC2)cc1,"inconclusive: 126 µM [inhibitor, partial curve, poor fit]",–
O=C(OCC(=O)N1CCc2ccccc21)c1ccccc1C(=O)c1ccc(Cl)c([N+](=O)[O-])c1,"inconclusive: 70.8 µM [inhibitor, single point]",–
CCCSc1nc2c(c(=O)[nH]c(=O)n2C)n1CC(O)COc1ccccc1C (stereo not given),"inconclusive: 17.8 µM [inhibitor, partial curve, poor fit]",–
CCCCC[C@@H]1C=C(C(=O)O)[C@H](c2ccc(F)cc2)N1S(=O)(=O)c1ccc(C)cc1,active: 44.7 µM,–
Cc1ccc(S(=O)(=O)CC(=O)c2cc3cccc(C)c3oc2=O)cc1,"inconclusive: 0.398 µM [inhibitor, full curve, poor fit]",–
CCCNS(=O)(=O)c1ccc2nc(NC(=O)c3ccc(F)cc3)sc2c1,"inconclusive: 141 µM [inhibitor, partial curve, poor fit]",–
CCS(=O)(=O)c1nc(S(=O)(=O)c2ccc(Cl)cc2)c(NCCOC)s1,"inconclusive: 12.6 µM [inhibitor, full curve, poor fit]",–
COc1ccc(OCc2nc(N)nc(Nc3ccccc3)n2)cc1,"inconclusive: 112 µM [inhibitor, partial curve, poor fit]",–
COc1cccc(-c2cn3c(n2)sc2cc(C(=O)NCCCc4ccccc4)ccc23)c1,inactive,–
Cc1nn(Cc2ccc(Cl)c(Cl)c2)c(C)c1NC(=O)c1noc2c1CCc1ccccc1-2,–,inconclusive: -34.5% [inhibitor]
COc1ccc(-c2ccc3c(c2)c(Sc2ccccc2)c(-c2cc(OC)cc(OC)c2)n3C)cc1,"inconclusive: 4.47 µM [inhibitor, full curve, poor fit]",–
CC(=O)C1=C(O)C(=O)N(CCN2CCOCC2)C1c1ccc(N(C)C)cc1 (stereo not given),"inconclusive: 3.16 µM [inhibitor, full curve, poor fit]",–
Cc1nc(-c2cn(C3CCCN(C(=O)c4ccc(C(C)(C)C)cc4)C3)nn2)no1 (stereo not given),inactive,–
COC(=O)CC1Oc2ccccc2-n2cc(-c3ccc(C)cc3)nc21 (stereo not given),"inconclusive: 79.4 µM [inhibitor, single point]",–
O=C(CSc1n[nH]c(=O)[nH]c1=O)c1ccccc1[N+](=O)[O-],inactive,–
COc1ccc(CNc2ncnc3c2CN(C2CCNC2)C(=O)CN3C)cc1OC (stereo not given),"inconclusive: 8.91 µM [inhibitor, full curve, poor fit]",–
O=C(NCc1ccccn1)c1ccc(CN2C(=O)CCn3nccc32)cc1,"inconclusive: 50.1 µM [inhibitor, single point]",–

Compound,Potency,"activity change, negative = inhibition"
Cc1ccc(-c2nnc(SCC#CCOC(=O)c3ccco3)o2)cc1,"inconclusive: 112 µM [inhibitor, single point]",–
Nc1c(C(=O)NCc2ccc(Cl)cc2Cl)nnn1Cc1ccc(Br)cc1,"inconclusive: 141 µM [inhibitor, single point]",–
C[C@H](CO)N1C[C@H](C)[C@@H](CN(C)Cc2ccncc2)Oc2ccc(NC(=O)Cn3cnnn3)cc2C1=O,"inconclusive: 7.08 µM [inhibitor, full curve]",–
CC(C)CNC(=O)COC(=O)c1ccc2ccccc2n1,"inconclusive: 3.16 µM [inhibitor, full curve, poor fit]",–
CCn1c(SCCOc2ccc(Cl)cc2)nnc1-c1cccs1,"inconclusive: 126 µM [inhibitor, single point]",–
O=C(OCc1ccc([N+](=O)[O-])cc1)C1(c2ccccc2)CC1,"inconclusive: 44.7 µM [inhibitor, partial curve, poor fit]",–
Cc1ccc(NC(=O)c2cc(=O)c3ccccc3o2)cc1,"inconclusive: 44.7 µM [inhibitor, partial curve]",–
COc1ccc(OCC(=O)Nc2cc(-c3ccccc3F)nn2-c2ccccc2)cc1,–,inconclusive: -30.1% [inhibitor]
C=CCSc1nnc(N2C(=O)C(O)=C(C(=O)c3ccco3)C2c2ccccc2F)s1 (stereo not given),active: 0.631 µM,–
Cc1ccc(C(=O)N2CC3CC(C2)[C@H]2CCCC(=O)N2C3)s1 (stereo not given in full),inactive,–
O=C(NC1CCCC(C(F)(F)F)C1)c1ccccn1 (stereo not given),"inconclusive: 31.6 µM [inhibitor, partial curve]",–
CC(C)CCNC(=O)NC(=O)COC(=O)c1cc(S(=O)(=O)N2CCOCC2)ccc1N1CCCCC1,"inconclusive: 4.47 µM [inhibitor, full curve, poor fit]",–
CCCCCCn1c(=O)n2n(c1=O)C[C@]1(OC(=O)NCc3ccccc3)CN(S(=O)(=O)c3ccc(C)cc3)C[C@]1(O)C2,"inconclusive: 35.5 µM [inhibitor, partial curve, poor fit]",–
CCc1ccc(CNC(=O)c2cc3cc(S(=O)(=O)N4CCCCC4)ccc3n2C)cc1,"inconclusive: 126 µM [inhibitor, partial curve, poor fit]",–
Cc1nc(-c2cc(-c3ccc(Cl)cc3)no2)cs1,inactive,–
N#CC(=NCc1cccnc1)C1=C(O)c2ccccc2C1=O,"inconclusive: 28.2 µM [inhibitor, partial curve, poor fit]",–
CSC1=N/C(=C\c2cccc(Oc3ccccc3)c2)C(=O)S1,"inconclusive: 39.8 µM [inhibitor, partial curve, poor fit]",–
O=C(CCCc1nc2ccccc2s1)NCc1ccccc1,inactive,–
Cn1c([N+](=O)[O-])cnc1N1CCN(c2nncs2)C1=O,inactive,–
CCc1nc(-c2c3n(c(=O)n(Cc4cc(=O)n5ccccc5n4)c2=O)CCCC3)no1,"inconclusive: 79.4 µM [inhibitor, single point]",–

# Looked up above.
# CCc1nc(-c2c3n(c(=O)n(Cc4cc(=O)n5ccccc5n4)c2=O)CCCC3)no1 | Potency: inconclusive: 79.4 µM [inhibitor, single point]
# COc1ccc(OCC(=O)Nc2cc(-c3ccccc3F)nn2-c2ccccc2)cc1 | activity change, negative = inhibition: inconclusive: -30.1% [inhibitor]
